Reference: PubChem BioAssay AID2685 (National Center for Advancing Translational Sciences (NCATS), 2010)
The other results are listed elsewhere or left out. These are further read-outs of the screen, such as a control signal, another cell line or another target. No call is given for them. Compounds called inactive in the main read-out are mostly missing here. Potencies come from curve fits of mixed quality, noted in brackets.

Experiment: qHTS Assay for Lipid Storage Modulators in Drosophila S3 Cells;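 on cell number change: cells counted by Cell Tracker Red CMTPX staining in the red channel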
Details: BODIPY lipid droplet fluorescence, 18-24 h; for cell number change: measured here: cell count max response, cells fed with added oleic acid
Outline: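 Laser-scanning cytometry quantifies lipid droplet accumulation (500–530 nm total intensity; droplet/cell object ratio) in oleic acid-fed (400 uM added) Drosophila S3 cells treated with a concentration series. 20 uM Triacsin C defined 100% inhibition.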

[1] = measured here: cell number channel AC50, cells fed with added oleic acid
[2] = measured here: lipid fluorescence (Fed channel) AC50, cells fed with added oleic acid

Row | SMILES | cell number change | AC50 [1] | AC50 [2]
1 | COc1ccc([N+](=O)[O-])cc1NS(=O)(=O)c1ccccc1 | 3.52% | 164 nM [rising, full curve, poor fit] | 1160 nM [rising, partial curve]
2 | CCn1c(=O)n(-c2ccc(Cl)cc2)c(=O)c2c3c(sc21)COC(C)(C)C3 | 17.2% | – | –
3 | Cc1cc(C(=O)NNC(=O)/C=C/c2ccc(F)cc2)c(C)o1 | 0.262% | – | 5.17 nM [rising, full curve, poor fit]
4 | COC(=O)c1sccc1NC(=O)Nc1cccc(C)c1 | 10.8% | – | 3660 nM [rising, partial curve, poor fit]
5 | CCOc1ccc(C(C)NC(=O)c2cc(=O)[nH]c3ccccc23)cc1OCC (centres undefined) | – | – | 4.61 nM [falling, full curve]
6 | CC1CCN(C(=O)c2[nH]cnc2C(=O)Nc2ccc(Cl)cc2)CC1 | -42.6% | 3660 nM [falling, single point] | –
7 | Cc1ccc(-c2nn(-c3ccc(F)cc3)cc2C(=O)NCC2CCCO2)cc1 (centres undefined) | -37.3% | 820 nM [falling, full curve, poor fit] | 1460 nM [falling, full curve, poor fit]
8 | CS(=O)(=O)c1ccc(Cl)c(NC(=O)C2CCCCN2S(=O)(=O)c2ccccc2)c1 (centres undefined) | -6.38% | – | 164 nM [falling, full curve, poor fit]
9 | Clc1ccccc1/C=N/N1CCN(Cc2ccccc2)CC1 | -9.12% | – | 29100 nM [rising, single point]
10 | O=S(=O)(NCCN1CCOCC1)c1ccc(Oc2ccccc2Cl)cc1 | – | – | 20600 nM [falling, single point]
11 | CCCCn1c(N)c(N(CCOC)C(=O)C2CCN(S(=O)(=O)c3ccccc3)CC2)c(=O)[nH]c1=O | – | 6510 nM [falling, partial curve, poor fit] | 5170 nM [falling, partial curve]
12 | O=C(Nc1ccc(C(=O)N2CCN(c3ccc(F)cc3)CC2)cc1)C1=CSCCO1 | 22.6% | 184 nM [rising, full curve] | 6510 nM [rising, single point]
13 | C=C(C)CNC(=S)NN=C1c2ccccc2-c2ccccc21 | -7.79% | – | –
14 | FC(F)(F)c1ccc(Oc2ccc3cc(Br)ccc3c2)nc1 | -24.7% | – | 2910 nM [falling, single point]
15 | CN(C)CCN(C(=O)c1ccc(S(=O)(=O)N(C)c2ccccc2)cc1)c1nc2ccc(Cl)cc2s1 | -11.6% | – | 2060 nM [falling, partial curve, poor fit]

From compound 10 as far as 11, copied from above:
Row | SMILES | cell number change | AC50 [1] | AC50 [2]
10 | O=S(=O)(NCCN1CCOCC1)c1ccc(Oc2ccccc2Cl)cc1 | – | – | 20600 nM [falling, single point]
11 | CCCCn1c(N)c(N(CCOC)C(=O)C2CCN(S(=O)(=O)c3ccccc3)CC2)c(=O)[nH]c1=O | – | 6510 nM [falling, partial curve, poor fit] | 5170 nM [falling, partial curve]
